Data taken from ChEMBL document CHEMBL3988442, “University of Dundee, Small-Polar-MMV Screening Library” (2021).

Mtb cholesterol medium: 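Whole-cell growth test on Mycobacterium tuberculosis, read after 4 days in a medium based on cholesterol and the lipid DPPC; the read-out is not stated. Tested at 50 µM. Direction is inferred from retests: higher values go with more growth inhibition. Of about 69,000 compounds tested this way, about 370 (0.54%) reached 50% or more in at least one test.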
Mtb glucose medium: 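Growth of Mycobacterium tuberculosis over 3 days (7H9 medium with glucose and tyloxapol); the read-out is not stated. Compounds at 50 µM. The record gives no direction; compounds that gave an IC50 in retests scored well above the rest, so higher reads as more growth inhibition. About 69,000 compounds were tested under these conditions; 1.1% (about 760) showed 50% or more at least once.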

Each number is a percent effect as filed. How 0% and 100% were set is not recorded. Most values in the screen are low, and negative values occur. This is an unselected part of the compounds tested. Two or more numbers in one place are separate tests of the same structure; such repeats can differ widely.

For O=C1CCN(C(=O)C2(c3ccc(F)cc3)CCOCC2)CCN1 the result was Mtb cholesterol medium: -5.781%; Mtb glucose medium: 18.43%. For c1cncc(CN(CCCn2ccnc2)CC2CCOC2)c1 (centres undefined) the result was Mtb cholesterol medium: -3.928%; Mtb glucose medium: 3.49% & -1.278%. With O=C(Nc1cncc(Br)c1O)c1ccon1 the screen gave Mtb cholesterol medium: -8.155% & 12.74%; Mtb glucose medium: 13.51%. For O=C(C1CC1)N1CCC2(CC1)CNCc1ccccc12 the result was Mtb cholesterol medium: -9.032%; Mtb glucose medium: -5.101% & -7.52%. CCN(CC)S(=O)(=O)CC(=O)N1CCc2ccc(C)cc21 gave Mtb cholesterol medium: -10.97%; Mtb glucose medium: -15.8%. Cc1ccc2[nH]c(C3CCN(C)CC3)nc2c1 read Mtb cholesterol medium: -44.58%; Mtb glucose medium: -31.91%. COCc1ncc(CN2CCC(Oc3ccccc3OC)CC2)cn1 read Mtb cholesterol medium: -7.279%; Mtb glucose medium: -32.68%.

Result for COC1CCN(C(=O)CCn2ccc(=O)[nH]c2=O)CC1 was Mtb cholesterol medium: -37.53%; Mtb glucose medium: -2.54% & -25.45%. Cc1cc(CNc2cncc(C(=O)N(C)C)n2)c2[nH]c(C)c(C)c2c1 gave Mtb cholesterol medium: 3.377%; Mtb glucose medium: -26.68%. With CC(OCC(F)(F)F)C(=O)NCCN(C)C (centres undefined) the screen gave Mtb cholesterol medium: 16.1%; Mtb glucose medium: 16.36%. N#Cc1c(Cl)nsc1N1CCN(CC2CC2)CC1 gave Mtb cholesterol medium: 9.771%; Mtb glucose medium: -17.79%. For CCN(CC)C(=O)[C@@H]1C[C@H](NC(=O)c2cccn2C(C)C)CN1C the result was Mtb cholesterol medium: -13.06%; Mtb glucose medium: -19.45%. Result for NC(=O)N1CCC2(CC1)CC(=O)N(CC1CCCO1)c1ccccc12 (centres undefined) was Mtb cholesterol medium: -7.973%; Mtb glucose medium: -1.15%. COC(=O)c1ccc(Cn2cnc(C#N)n2)cc1 read Mtb cholesterol medium: -22.8%; Mtb glucose medium: 4.356%.

O=C(NCCCN1CCN(c2ncccn2)CC1)Nc1ccccn1 read Mtb cholesterol medium: -5.122% & -9.603%; Mtb glucose medium: -27%. For [H][C@]12CCCCN1CCC[C@H]2CCc1nc(-c2ccc(C)nn2)no1 the result was Mtb cholesterol medium: 7.142%; Mtb glucose medium: 28.25%. With Cc1nc(COc2cccc(C#N)c2)no1 the screen gave Mtb cholesterol medium: 11.08%; Mtb glucose medium: 15.41%. Cc1nn(C)c2cn(CC(=O)N3CCN(c4ccccc4)CC3)nc12 read Mtb cholesterol medium: -12.94%; Mtb glucose medium: -17.6%. For CN(Cc1cccnc1)CC1CN(C(=O)C2CC2)Cc2nccn2C1.O=C(O)C(F)(F)F.O=C(O)C(F)(F)F (centres undefined) the result was Mtb cholesterol medium: -15.53%; Mtb glucose medium: -1.369%. Result for NC(=O)C1CCN(c2ccc3cc(Br)ccc3n2)C1 (centres undefined) was Mtb cholesterol medium: -23.86%; Mtb glucose medium: -25.06%. For CN(C)CC(=O)N1CCCC2(CCC(=O)N(CCc3c[nH]cn3)C2)C1 (centres undefined) the result was Mtb cholesterol medium: -1.568%; Mtb glucose medium: -0.6303%.

Result for CC(C)c1nnc(NC(=O)N2CCCC2c2ccncc2)s1 (centres undefined) was Mtb cholesterol medium: -8.657%; Mtb glucose medium: 12.01%. CN(Cc1cccnc1)C1CC2(CCN(c3ccccn3)CC2)C1.O=C(O)C(F)(F)F.O=C(O)C(F)(F)F.O=C(O)C(F)(F)F read Mtb cholesterol medium: -18.22%; Mtb glucose medium: 29.27%. For CCc1cnc(N2CCCC(CCC(N)=O)C2)nc1 (centres undefined) the result was Mtb cholesterol medium: 2.799%; Mtb glucose medium: -20.89%. O=C1CCCN1Cc1ncn2c1CN(C(=O)NC1CCCCC1)CCC2 read Mtb cholesterol medium: 3.887%; Mtb glucose medium: -7.038%. Result for COc1ccc(OC)c(-n2cnnc2CN)c1 was Mtb cholesterol medium: 0.01104%; Mtb glucose medium: 9.369%. For Cc1cc(CNC(=O)N2CCc3ccccc32)on1 the result was Mtb cholesterol medium: 5.144%; Mtb glucose medium: 33.79%. Result for CCS(=O)(=O)N1CCc2ccc(=O)n(CC3CC3)c2CC1 was Mtb cholesterol medium: 5.426% & -6.022%; Mtb glucose medium: 1.539% & 10.73%.

O=C(O)c1cc(S(=O)(=O)Nc2ccc(F)cc2F)cc2c1OCCO2 read Mtb cholesterol medium: 8.862%; Mtb glucose medium: 9.388%. With O=S(=O)(NCC1COc2ccccc2C1)N1CCCCCC1 (centres undefined) the screen gave Mtb cholesterol medium: -18.85%; Mtb glucose medium: 18.31%. For N#Cc1cccnc1NCCNC(=O)NCCSC(F)(F)F the result was Mtb cholesterol medium: 0.9707%; Mtb glucose medium: -2.353% & -11.81%. Result for O=C(c1ccsc1)N1CCc2c(CNc3nccs3)n[nH]c2C1 was Mtb cholesterol medium: 8.21%; Mtb glucose medium: 17.45% & -3.447%. With Cc1ccc([C@@H]2CN(S(=O)(=O)Cc3ccccc3)C[C@H]2N(C)C)cc1 the screen gave Mtb cholesterol medium: -15.21%; Mtb glucose medium: -0.0753% & -11.07%. For O=S(=O)(c1ccccc1)N1CCCC(c2nccs2)C1 (centres undefined) the result was Mtb cholesterol medium: 19.24%; Mtb glucose medium: 14.1%. Result for [H][C@]12CC[C@]([H])(CN(C(C)=O)C1)N(S(=O)(=O)c1ccc(C#N)cc1Cl)C2 was Mtb cholesterol medium: -2.052%; Mtb glucose medium: -19.32%.

CNC(=O)c1ccc(C(=O)N2CCCC(n3ccnc3C)C2)cn1 (centres undefined) read Mtb cholesterol medium: -17.47%; Mtb glucose medium: -22.68%. Result for Cn1cc(CN(CC2(O)CNCCOC2)C2CCCCC2)cn1 (centres undefined) was Mtb cholesterol medium: -6.464%; Mtb glucose medium: -6.781%. Result for Nc1ccnc(-c2cc(NC3CCNCC3)nc3[nH]ccc23)c1 was Mtb cholesterol medium: -13.71%; Mtb glucose medium: -71.88%. Result for Cc1cnn(CC2CCCCN2C(=O)c2cnc3n[nH]c(C)c3c2)c1 (centres undefined) was Mtb cholesterol medium: -16.05%; Mtb glucose medium: -11.99%. Result for c1cc(CCN2CCCC2CN2CCCC2)ccn1 (centres undefined) was Mtb cholesterol medium: 1.055% & -10.46%; Mtb glucose medium: -25.23%. With O=C(O)C(F)(F)F.O=C(O)C(F)(F)F.O=C(O)C(F)(F)F.[H][C@@]12CN(Cc3cccnc3)CCO[C@]1([H])CN(Cc1sccc1C)C2 the screen gave Mtb cholesterol medium: -11.65%; Mtb glucose medium: -18.93% & -11.35%. For CS(=O)(=O)NCCC1CCCN(Cc2ccccc2F)C1 (centres undefined) the result was Mtb cholesterol medium: -2.036%; Mtb glucose medium: 7.049% & -24.86%.

CC(C)c1n[nH]c(C2CN(C(=O)COc3ccc(F)cc3)CCO2)n1 (centres undefined) gave Mtb cholesterol medium: -4.053%; Mtb glucose medium: 18.77%. COCCN1CCC(CNc2nccc(-c3cnn(C)c3)n2)CC1 read Mtb cholesterol medium: -9.357%; Mtb glucose medium: 4.914% & 1.52%. For O=c1[nH]c2cc(S(=O)(=O)N3CCC(c4ccsc4)CC3)ccc2o1 the result was Mtb cholesterol medium: 11.83%; Mtb glucose medium: -12.41% & 2.865%. CC(C)C(C(=O)NC1CCOCC1)n1cnc2cc(F)c(F)cc21 (centres undefined) gave Mtb cholesterol medium: 2.195%; Mtb glucose medium: 6.791%. Result for CCc1csc(CNC(=O)C(CC)n2cccn2)n1 (centres undefined) was Mtb cholesterol medium: -8.528%; Mtb glucose medium: 3.56%. CC(C)Cc1nc(CN2CCOC(Cn3cccn3)C2)no1 (centres undefined) read Mtb cholesterol medium: -17.26%; Mtb glucose medium: 4.371%.

Some entries from above, unchanged:

* CCN(CC)C(=O)[C@@H]1C[C@H](NC(=O)c2cccn2C(C)C)CN1C : Mtb cholesterol medium: -13.06%; Mtb glucose medium: -19.45%
* Cc1nc(COc2cccc(C#N)c2)no1 : Mtb cholesterol medium: 11.08%; Mtb glucose medium: 15.41%
* O=S(=O)(c1ccccc1)N1CCCC(c2nccs2)C1 (centres undefined) : Mtb cholesterol medium: 19.24%; Mtb glucose medium: 14.1%
* Cc1ccc([C@@H]2CN(S(=O)(=O)Cc3ccccc3)C[C@H]2N(C)C)cc1 : Mtb cholesterol medium: -15.21%; Mtb glucose medium: -0.0753% & -11.07%
* COCc1ncc(CN2CCC(Oc3ccccc3OC)CC2)cn1 : Mtb cholesterol medium: -7.279%; Mtb glucose medium: -32.68%
* O=c1[nH]c2cc(S(=O)(=O)N3CCC(c4ccsc4)CC3)ccc2o1 : Mtb cholesterol medium: 11.83%; Mtb glucose medium: -12.41% & 2.865%